# Test results reported in patent US6096710 (dated 2000).
# How the values were obtained:
# [1] = general procedure: Boc solid-phase peptide synthesis; 4-methylbenzhydrylamine (MBHA) resin, 200-400 mesh, 1% DVB, 0.45 mmol/g; DIC and HOBt (solid phase); EDC and HOBt (template coupling in solution); conditions: for isolated mass / isolated yield / crude mass: whole synthesis; for conjugation yield: conjugation step
# peptide synthesis = conditions: conjugation step
substance,measurement,setting,value
(Gly-Nleu-Pro)9-NH2,isolated mass,[1]; scale 0.2 mmol,90 mg
same,isolated yield,[1]; scale 0.2 mmol,55%
(Gly-Pro-Nleu)3 --NH2,isolated mass,[1]; scale 0.2 mmol,90 mg
same,isolated yield,[1]; scale 0.2 mmol,55%
Ac-(Gly-Nleu-Pro)3 --NH2,isolated yield,[1]; scale 0.35 mmol,47%
Ac-(Gly-Pro-Nleu)6 --NH2,isolated yield,[1]; scale 0.45 mmol,47%
Ac-(Gly-Pro-Nleu)9 --NH2,isolated yield,[1],29%
Ac--(Gly--Pro--Hyp)3 --NH2,isolated yield,[1],42%
Ac--(Gly--Pro--Hyp)5 --NH2,isolated yield,[1],35%
Ac--(Gly--Pro--Hyp)6 --NH2,isolated yield,[1],39%
KTA--[Gly--(Gly--Pro--Hyp)3 --NH2 ]3,isolated yield,[1],35%
KTA--[Gly--(Gly--Pro--Hyp)5 --NH2 ]3,isolated yield,[1],12%
KTA-[Aha-(Gly-Pro-Nleu)6 --NH2 ]3,isolated yield,[1],9%
same,crude mass,[1]; scale 0.45 mmol,200 mg
same,isolated mass,[1]; scale 0.45 mmol,53 mg
KTA-[Gly-(Gly-Nleu-Pro)3 --NH2 ]3,isolated yield,[1],6%
same,isolated mass,[1]; scale 0.35 mmol,20 mg
KTA-[Gly-(Gly-Nleu-Pro)6 --NH2 ]3,isolated yield,[1],4.4%
same,isolated mass,[1]; scale 0.5 mmol,30 mg
KTA-[Gly-(Gly-Pro-Nleu)3 --NH2 ]3,isolated yield,[1],6%
same,crude mass,[1]; scale 0.45 mmol,255 mg
same,isolated mass,[1]; scale 0.45 mmol,65 mg
KTA-[Gly-(Gly-Pro-Nleu)6 --NH2 ]3,conjugation yield,peptide synthesis,21%
same,isolated yield,[1],14%
same,crude mass,[1]; scale 0.3 mmol,245 mg
KTA-[Gly-(Gly-Pro-Nleu)9 --NH2 ]3,conjugation yield,[1],10%
KTA-[Gly-Gly-Pro-Hyp-NH2 ]3,isolated mass,[1]; scale 0.3 mmol,55 mg
same,isolated yield,[1]; scale 0.3 mmol,56% yield
KTA-[Gly-Gly-Pro-Nleu-NH2 ]3,conjugation yield,[1],80%
TMA-[(Gly-Pro-Nleu)9 --NH2 ]3,conjugation yield,[1],20%
TMA-[Gly-(Gly-Pro-Nleu)6 --NH2 ]3,isolated yield,[1],10%
same,isolated mass,[1]; scale 0.3 mmol,35 mg
TMA-[Gly-Gly-Pro-Nleu-NH2 ]3,conjugation yield,[1],38%
